Tested on: metastatic colorectal cancer (mCRC)
Assay: Phase I/II trial of pentamidine with chemotherapy in previously treated mCRC (Example 5)
Format: in vivo, human
Details: initial 17 pts; range in brackets

Structure (SMILES): N=C(N)c1ccc(OCCCCCOc2ccc(C(=N)N)cc2)cc1 [Pentamidine]
- Median duration of treatment: 15.1 wk (0.3-58.4)
